Results taken from PubChem BioAssay AID192 (DTP/NCI, 2004).
The list is a part of this screen's results and no random one: it gathers tests that were run many times, whatever their T/C, doses with no T/C, and many T/C values between a quarter and a half above the control. Further doses and runs are listed elsewhere. T/C: endpoint of the treated group in % of that of the vehicle group. Some doses have a count of surviving animals in place of a T/C: the source holds a T/C of zero for them, seemingly a mark for toxic or unscored doses. Some survivor counts are full or nearly so, which does not show that the dose was tolerated: the source hardly ever lists a survival T/C far under the control, and the zero likely stands for such cases as well. Counts of survivors are from the toxicity check (mostly the fifth day) where no day follows; animals may have died later. Schedule codes are those of the source, read here as Q, the interval in days (D) or hours (H), X, the number of doses. Some structures stand for samples that the source files as different forms (salt, stereo form or complex); doses refer to the form tested. Marks such as (2×) give the number of equal values in this list. For survival time, this PubChem deposit counts one and a half times the control or more as active, and values a quarter to a half above the control carry no call in these data; other NCI protocols may use other cut-offs. Some T/C values carry the count of animals alive at the toxicity check (mostly the fifth day); without a count, all were alive then.

Tested on: BDF1 mice, B16 melanoma ip, median survival T/C
Test: NCI In Vivo Anticancer Drug Screen. Data for tumor model B16 Melanoma (intraperitoneal) in B6D2F1 (BDF1) mice
Settings: T/C endpoint: median survival time, higher T/C = longer survival
Outline: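 Mice with transplantable tumors; drug vs vehicle groups; endpoint survival or tumor size; value = T/C.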

[1] = dose: 100.0 mg/kg/injection, schedule: Q01DX009 (ip), vehicle: Klucel (hydroxypropylcellulose) (HPC)
[2] = dose: 200.0 mg/kg/injection, schedule: Q01DX009 (ip), vehicle: saline with Tween-80
[3] = dose: 400.0 mg/kg/injection, schedule: Q01DX009 (ip), vehicle: saline with Tween-80
[4] = dose: 100.0 mg/kg/injection, schedule: Q01DX009 (ip), vehicle: saline with Tween-80
[5] = dose: 200.0 mg/kg/injection, schedule: Q01DX009 (ip), vehicle: Klucel (hydroxypropylcellulose) (HPC)
[6] = dose: 3.0 mg/kg/injection, schedule: Q01DX009 (ip), vehicle: Klucel (hydroxypropylcellulose) (HPC)
[7] = dose: 6.0 mg/kg/injection, schedule: Q01DX009 (ip), vehicle: Klucel (hydroxypropylcellulose) (HPC)
[8] = dose: 12.0 mg/kg/injection, schedule: Q01DX009 (ip), vehicle: Klucel (hydroxypropylcellulose) (HPC)
[9] = dose: 12.5 mg/kg/injection, schedule: Q01DX009 (ip), vehicle: saline with Tween-80
[10] = dose: 4.0 mg/kg/injection, schedule: Q01DX009 (ip), vehicle: saline with Tween-80
[11] = dose: 8.0 mg/kg/injection, schedule: Q01DX009 (ip), vehicle: saline with Tween-80
[12] = dose: 50.0 mg/kg/injection, schedule: Q01DX009 (ip), vehicle: saline
[13] = dose: 400.0 mg/kg/injection, schedule: Q01DX009 (ip), vehicle: saline

## O=c1cnn(C2OC(CO)C(O)C2O)c(=O)[nH]1 (stereo unspecified)
dose: 250.0 mg/kg/injection, schedule: Q03HX032 (ip), vehicle: water
  survivor count: 10 of 10
dose: 500.0 mg/kg/injection, schedule: Q03HX024 (ip), vehicle: water
  survivor count: 10 of 10
dose: 500.0 mg/kg/injection, schedule: Q03HX032 (ip), vehicle: water
  survivor count: 10 of 10
dose: 1000.0 mg/kg/injection, schedule: Q03HX024 (ip), vehicle: water
  survivor count: 10 of 10
dose: 1000.0 mg/kg/injection, schedule: Q03HX032 (ip), vehicle: water
  survivor count: 10 of 10
dose: 1200.0 mg/kg/injection, schedule: Q01DX009 (ip), vehicle: Klucel (hydroxypropylcellulose) (HPC)
  survivor count: 10 of 10
dose: 2000.0 mg/kg/injection, schedule: Q03HX024 (ip), vehicle: water
  survivor count: 8 of 10
dose: 2000.0 mg/kg/injection, schedule: Q03HX032 (ip), vehicle: water
  survivor count: 10 of 10

## O=C(CC(O)(C(F)(F)F)C(F)(F)F)CC(O)(C(F)(F)F)C(F)(F)F
dose: 1.25 mg/kg/injection, schedule: Q04DX003 (ip), vehicle: saline
  T/C: 125 % of control
dose: 5.0 mg/kg/injection, schedule: Q04DX003 (ip), vehicle: saline
  survivor count: 10 of 10 (2×)

## CC/C(=C/C(F)(F)C(F)(F)C(F)(F)F)[N+](=O)[O-]
[1]
  survivor count: 10 of 10

## C/C=C/C=C1/OC(C)=C(C(C)=O)C1=O
[2]
  survivor count: 4 of 9
[3]
  survivor count: 0 of 10

## CC(Br)C(=O)NCC(=O)O (stereo unspecified)
[4]
  survivor count: 10 of 10
[2]
  survivor count: 10 of 10

## CC1(C)N=C(N)N=C(N)N1c1cccc(Cl)c1
dose: 40.0 mg/kg/injection, schedule: Q04DX003 (ip), vehicle: saline
  T/C: 130 % of control
dose: 80.0 mg/kg/injection, schedule: Q04DX003 (ip), vehicle: saline
  T/C: 132 % of control [9 of 10 alive]

## CCOc1ccc(Br)cc1/C=N\N=C\c1cc(Br)ccc1OCC
[1]
  survivor count: 10 of 10
[4]
  survivor count: 6 of 6
[5]
  survivor count: 10 of 10
[2]
  survivor count: 6 of 6
dose: 400.0 mg/kg/injection, schedule: Q01DX009 (ip), vehicle: Klucel (hydroxypropylcellulose) (HPC)
  survivor count: 9 of 10
[3]
  survivor count: 5 of 6

## C[CH2][Pb]([CH2]C)([CH2]C)[O]C(=O)c1ccccc1
[6]
  survivor count: 10 of 10
[7]
  survivor count: 10 of 10
[8]
  survivor count: 7 of 10

## N=c1c2ncn(Cc3cccc(C(F)(F)F)c3)c2ncn1O
dose: 3.12 mg/kg/injection, schedule: Q01DX009 (ip), vehicle: Klucel (hydroxypropylcellulose) (HPC)
  survivor count: 7 of 10

## COc1cc(-c2ccc(Nc3ccccc3C(=O)O)c(OC)c2)ccc1N
[4]
  survivor count: 9 of 10

## CC1=CCC=C(CNc2ncnc3nc[nH]c23)C1
[9]
  survivor count: 10 of 10
dose: 25.0 mg/kg/injection, schedule: Q01DX009 (ip), vehicle: saline with Tween-80
  survivor count: 9 of 10

## Cc1cccc(C(N)=S)n1
[5]
  survivor count: 6 of 10

## C[CH2][Pb]([CH2]C)([CH2]C)[n]1cnc2ccccc21
[6]
  survivor count: 10 of 10
[7]
  survivor count: 7 of 10
[8]
  survivor count: 0 of 10

## CC(C)n1c2c([n+](C)c1/C=C/c1ccccc1)C(=O)c1ccccc1C2=O
dose: 1.0 mg/kg/injection, schedule: Q01DX009 (ip), vehicle: saline
  survivor count: 3 of 10
dose: 2.0 mg/kg/injection, schedule: Q01DX009 (ip), vehicle: saline with Tween-80
  survivor count: 9 of 10
[10]
  survivor count: 6 of 10
[11]
  survivor count: 0 of 10

## O=C(Nc1ccccc1C(F)(F)F)c1cccc(C(=O)Nc2ccccc2C(F)(F)F)c1
dose: 400.0 mg/kg/injection, schedule: Q04DX003 (ip), vehicle: carboxymethylcellulose (CMC)
  survivor count: 10 of 10

## Cc1ccc(S(=O)(=O)c2ccc(Sc3cccc[n+]3[O-])c3nonc23)cc1
dose: 640.0 mg/kg/injection, schedule: Q04DX002 (ip), vehicle: saline with Tween-80
  survivor count: 0 of 3

## CC(C)Nc1ncnc2[nH]ncc12
dose: 16.0 mg/kg/injection, schedule: Q01DX009 (ip), vehicle: Klucel (hydroxypropylcellulose) (HPC)
  survivor count: 10 of 10
dose: 32.0 mg/kg/injection, schedule: Q01DX009 (ip), vehicle: Klucel (hydroxypropylcellulose) (HPC)
  survivor count: 9 of 10
dose: 64.0 mg/kg/injection, schedule: Q01DX009 (ip), vehicle: Klucel (hydroxypropylcellulose) (HPC)
  survivor count: 7 of 10

## C1CCN(CN2CCCCC2)CC1
[12]
  survivor count: 10 of 10

## CC(Cc1ccccc1)NCCn1cnc2c1c(=O)n(C)c(=O)n2C (stereo unspecified)
dose: 100.0 mg/kg/injection, schedule: Q01DX009 (ip), vehicle: saline
  survivor count: 2 of 10
dose: 200.0 mg/kg/injection, schedule: Q01DX009 (ip), vehicle: saline
  survivor count: 0 of 10
[13]
  survivor count: 0 of 10

## CCOC(=O)C1=C(C)O/C(=C/c2cccc(Cl)c2)C1=O
[4]
  survivor count: 10 of 10
[2]
  survivor count: 0 of 10
[3]
  survivor count: 0 of 10

## O=c1ncccn1[C@@H]1O[C@H](CO)[C@H](O)C1O (stereo partly specified)
[12]
  T/C: 134 % of control
dose: 100.0 mg/kg/injection, schedule: Q01DX009 (ip), vehicle: saline, evaluated on day 60
  T/C: 127 % of control
dose: 100.0 mg/kg/injection, schedule: Q01DX009 (ip), vehicle: saline, evaluated on day 65
  T/C: 137 % of control
dose: 200.0 mg/kg/injection, schedule: Q01DX009 (ip), vehicle: saline, evaluated on day 60
  T/C: 130 % of control
dose: 200.0 mg/kg/injection, schedule: Q01DX009 (ip), vehicle: saline, evaluated on day 65
  T/C: 136 % of control
[13]
  T/C: 130 % of control

## O=C(/C(=C/c1ccccc1)CBr)c1ccccc1
[10]
  survivor count: 6 of 6
[11]
  survivor count: 4 of 6
dose: 12.5 mg/kg/injection, schedule: Q01DX009 (ip), vehicle: gum acacia
  survivor count: 10 of 10
dose: 16.0 mg/kg/injection, schedule: Q01DX009 (ip), vehicle: saline with Tween-80
  survivor count: 6 of 6
dose: 25.0 mg/kg/injection, schedule: Q01DX009 (ip), vehicle: gum acacia
  survivor count: 10 of 10
dose: 50.0 mg/kg/injection, schedule: Q01DX009 (ip), vehicle: gum acacia
  survivor count: 3 of 10
dose: 100.0 mg/kg/injection, schedule: Q04DX003 (ip), vehicle: gum acacia
  survivor count: 1 of 10
dose: 200.0 mg/kg/injection, schedule: Q04DX003 (ip), vehicle: gum acacia
  survivor count: 0 of 10
dose: 400.0 mg/kg/injection, schedule: Q04DX003 (ip), vehicle: gum acacia
  survivor count: 0 of 10

## [I][Pt+2][I].[NH-]CC[NH-]
dose: 22.0 mg/kg/injection, schedule: Q01DX009 (ip), vehicle: Klucel (hydroxypropylcellulose) (HPC)
  T/C: 140 % of control
dose: 44.0 mg/kg/injection, schedule: Q01DX009 (ip), vehicle: Klucel (hydroxypropylcellulose) (HPC)
  survivor count: 4 of 10

## CS(C)=O
dose: 6.0 grams/kg/injection, schedule: Q01DX009 (ip), vehicle: saline
  survivor count: 10 of 10

## CC(OCc1ccccc1)C(NC(=O)OC(C)(C)C)C(=O)O (stereo unspecified)
[4]
  survivor count: 10 of 10
[2]
  survivor count: 10 of 10
[3]
  survivor count: 9 of 10

## Cc1cc(C)c([I+]c2c(C)cc(C)cc2C)c(C)c1
[8]
  survivor count: 7 of 10

## COc1cc2c(cc1OC)/C(=N/N)CCC2
dose: 100.0 mg/kg/injection, schedule: Q01DX009 (ip), vehicle: water
  survivor count: 7 of 10

## CCOC1CCC2C(CCC(/C=C/c3ccc(O)c4ncccc34)N2C)C1 (stereo unspecified)
[9]
  survivor count: 10 of 10
dose: 50.0 mg/kg/injection, schedule: Q01DX009 (ip), vehicle: saline with Tween-80
  survivor count: 10 of 10
[4]
  survivor count: 10 of 10
